Reference: ChEMBL document CHEMBL4138293, “Modified Abietane Diterpenoids from Whole Plants of Selaginella moellendorffii” (J Nat Prod, 2018)

Experiments:
[1] = test system: MCF7; assay: Growth inhibition of human MCF7 cells after 48 hrs by MTS assay; assay type: functional, cell-based; conditions: MCF7, 48 h
[2] = test system: A549; assay: Growth inhibition of human A549 cells after 48 hrs by MTS assay; assay type: functional, cell-based; conditions: A549, 48 h

IC50 [1]: < 8 nM | IC50 [2]: < 8 nM
Compound: CC(=O)O[C@H]1C(=O)[C@@]2(C)[C@H]([C@H](OC(=O)c3ccccc3)[C@]3(O)C[C@H](OC(=O)[C@H](O)[C@@H](NC(=O)c4ccccc4)c4ccccc4)C(C)=C1C3(C)C)[C@]1(OC(C)=O)CO[C@@H]1C[C@@H]2O [PACLITAXEL]
